Measured values: PMC5339724
These are yes or no findings as the source states them, for the method shown. In cells and extracts the contact can be indirect. Where a sequence is shown, tags or fusion partners need not be part of it.

Biological target: T1, FLAG-tagged podocin (UniProt Q9NP85)
T1 sequence: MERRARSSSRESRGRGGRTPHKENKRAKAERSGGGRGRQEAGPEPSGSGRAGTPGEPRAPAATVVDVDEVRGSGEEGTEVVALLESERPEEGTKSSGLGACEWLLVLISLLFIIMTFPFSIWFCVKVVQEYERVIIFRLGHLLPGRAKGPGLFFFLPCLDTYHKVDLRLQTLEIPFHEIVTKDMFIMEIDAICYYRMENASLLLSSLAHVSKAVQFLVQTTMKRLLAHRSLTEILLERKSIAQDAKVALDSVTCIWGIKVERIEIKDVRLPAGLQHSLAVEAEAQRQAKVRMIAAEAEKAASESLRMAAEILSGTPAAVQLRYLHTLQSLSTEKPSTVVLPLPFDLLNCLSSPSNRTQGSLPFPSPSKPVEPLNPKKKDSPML
Experiment: co-IP; HEK293T cells co-transfected with FLAG-podocin and GFP-SNX9 constructs; lysate in 50 mM Tris pH 7.5, 150 mM NaCl, 1.0% Triton X100; anti-FLAG-M2 agarose overnight at 4 °C; blot with anti-GFP and anti-FLAG

binding	Substance
no binding	GFP-SNX9-ΔPXBAR (domain or fragment)
no binding	GFP-SNX9-ΔBAR (domain or fragment)
